# ± gives the standard deviation of the averaged measurements. Differences between knockout arms are mostly noise.
# Tested on: SKBR3
# Assay: relative cell number vs DMSO control (72 h) (% of DMSO); higher = less growth inhibition (more cells)
# Experimental: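 QMAP-Seq: a pool of 5 breast cancer cell lines (ZR-75-1, SKBR3, HCC-38, MDA-MB-231, BT-20), each carrying 12 doxycycline-inducible Cas9 sgRNA perturbations (11 knockouts plus non-targeting sgNT), was treated with compounds for 72 h at four 10-fold doses (10 nM-10 uM or 1 nM-1 uM range). Barcodes were amplified and sequenced, and cell number was interpolated from 293T spike-in standard curves. The result is expressed as % of the median of DMSO wells. Two biological replicates.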
# [1] = sgRNA knockout: sgATF3, 1000 nM
# [2] = sgRNA knockout: sgATF3, 10000 nM
# [3] = sgRNA knockout: sgATF4, 1000 nM
# [4] = sgRNA knockout: sgATF4, 10000 nM
# [5] = sgRNA knockout: sgATF6, 1000 nM
# [6] = sgRNA knockout: sgATF6, 10000 nM
# [7] = sgRNA knockout: sgATG7, 1000 nM
# [8] = sgRNA knockout: sgATG7, 10000 nM
# [9] = sgRNA knockout: sgERN1, 1000 nM
# [10] = sgRNA knockout: sgERN1, 10000 nM
# [11] = sgRNA knockout: sgHSF1, 1000 nM
# [12] = sgRNA knockout: sgHSF1, 10000 nM
# [13] = sgRNA knockout: sgHSF2, 1000 nM
# [14] = sgRNA knockout: sgHSF2, 10000 nM
# [15] = sgRNA knockout: sgKEAP1, 100 nM
# [16] = sgRNA knockout: sgKEAP1, 1000 nM
# [17] = sgRNA knockout: sgKEAP1, 10000 nM
# [18] = sgRNA knockout: sgNFE2L2, 10 nM
# [19] = sgRNA knockout: sgNFE2L2, 100 nM
# [20] = sgRNA knockout: sgNFE2L2, 1000 nM
# [21] = sgRNA knockout: sgNFE2L2, 10000 nM
# [22] = sgRNA knockout: sgSLC35F2, 10 nM
# [23] = sgRNA knockout: sgSLC35F2, 100 nM
# [24] = sgRNA knockout: sgSLC35F2, 1000 nM
# [25] = sgRNA knockout: sgSLC35F2, 10000 nM
# [26] = sgRNA knockout: sgXBP1, 1000 nM
# [27] = sgRNA knockout: sgXBP1, 10000 nM
structure (smiles),measurement,setting,value
Cc1cn(-c2cc(NC(=O)c3ccc(C)c(Nc4nccc(-c5cccnc5)n4)c3)cc(C(F)(F)F)c2)cn1 [Nilotinib],relative cell number,"sgRNA knockout: sgATF3, 10 nM",103.4 ± 0.76
same,relative cell number,"sgRNA knockout: sgATF3, 100 nM",98.71 ± 0.27
same,relative cell number,[1],86.7 ± 17
same,relative cell number,[2],24.7 ± 14
same,relative cell number,"sgRNA knockout: sgATF4, 10 nM",96.54 ± 0.58
same,relative cell number,"sgRNA knockout: sgATF4, 100 nM",96.8 ± 20
same,relative cell number,[3],94 ± 31
same,relative cell number,[4],21 ± 4
same,relative cell number,"sgRNA knockout: sgATF6, 10 nM",107 ± 26
same,relative cell number,"sgRNA knockout: sgATF6, 100 nM",92.5 ± 2.9
same,relative cell number,[5],91.4 ± 1.1
same,relative cell number,[6],19.5 ± 10
same,relative cell number,"sgRNA knockout: sgATG7, 10 nM",114 ± 19
same,relative cell number,"sgRNA knockout: sgATG7, 100 nM",90.5 ± 1.7
same,relative cell number,[7],96 ± 11
same,relative cell number,[8],26.8 ± 18
same,relative cell number,"sgRNA knockout: sgERN1, 10 nM",83.6 ± 10
same,relative cell number,"sgRNA knockout: sgERN1, 100 nM",107 ± 1.3
same,relative cell number,[9],125 ± 15
same,relative cell number,[10],18.8 ± 0.3
same,relative cell number,"sgRNA knockout: sgHSF1, 10 nM",86.4 ± 19
same,relative cell number,"sgRNA knockout: sgHSF1, 100 nM",102 ± 3.5
same,relative cell number,[11],96.7 ± 8.7
same,relative cell number,[12],19.9 ± 6.1
same,relative cell number,"sgRNA knockout: sgHSF2, 10 nM",110 ± 5.4
same,relative cell number,"sgRNA knockout: sgHSF2, 100 nM",97.8 ± 7.9
same,relative cell number,[13],99.9 ± 9.4
same,relative cell number,[14],23.6 ± 1
same,relative cell number,"sgRNA knockout: sgKEAP1, 10 nM",78.2 ± 18
same,relative cell number,[15],98.9 ± 11
same,relative cell number,[16],106 ± 17
same,relative cell number,[17],22.5 ± 3.8
same,relative cell number,[18],68.4 ± 4.7
same,relative cell number,[19],101 ± 13
same,relative cell number,[20],101.8 ± 0.5
same,relative cell number,[21],24.3 ± 7.7
same,relative cell number,[22],99.6 ± 21
same,relative cell number,[23],92.1 ± 9.3
same,relative cell number,[24],91.2 ± 20
same,relative cell number,[25],16.7 ± 3.2
same,relative cell number,"sgRNA knockout: sgXBP1, 10 nM",102 ± 13
same,relative cell number,"sgRNA knockout: sgXBP1, 100 nM",96.9 ± 20
same,relative cell number,[26],94.3 ± 22
same,relative cell number,[27],16.7 ± 9.9
O=C(c1cc(Cc2n[nH]c(=O)c3ccccc23)ccc1F)N1CCN(C(=O)C2CC2)CC1 [Olaparib],relative cell number,"sgRNA knockout: sgATF3, 10 nM",101 ± 25
same,relative cell number,"sgRNA knockout: sgATF3, 100 nM",119 ± 40
same,relative cell number,[1],104 ± 51
same,relative cell number,[2],56.3 ± 22
same,relative cell number,"sgRNA knockout: sgATF4, 10 nM",88.3 ± 4.7
same,relative cell number,"sgRNA knockout: sgATF4, 100 nM",87.2 ± 2.5
same,relative cell number,[3],77.3 ± 19
same,relative cell number,[4],62.8 ± 1.1
same,relative cell number,"sgRNA knockout: sgATF6, 10 nM",96 ± 35
same,relative cell number,"sgRNA knockout: sgATF6, 100 nM",86.9 ± 8.6
same,relative cell number,[5],62.5 ± 16
same,relative cell number,[6],51.8 ± 21
same,relative cell number,"sgRNA knockout: sgATG7, 10 nM",80.6 ± 10
same,relative cell number,"sgRNA knockout: sgATG7, 100 nM",127 ± 9.8
same,relative cell number,[7],82.5 ± 5.3
same,relative cell number,[8],45.2 ± 16
same,relative cell number,"sgRNA knockout: sgERN1, 10 nM",75.2 ± 8.4
same,relative cell number,"sgRNA knockout: sgERN1, 100 nM",83.1 ± 22
same,relative cell number,[9],82 ± 15
same,relative cell number,[10],49.6 ± 3.5
same,relative cell number,"sgRNA knockout: sgHSF1, 10 nM",82.5 ± 2.5
same,relative cell number,"sgRNA knockout: sgHSF1, 100 nM",72.5 ± 2.1
same,relative cell number,[11],76.1 ± 10
same,relative cell number,[12],57.5 ± 17
same,relative cell number,"sgRNA knockout: sgHSF2, 10 nM",101 ± 12
same,relative cell number,"sgRNA knockout: sgHSF2, 100 nM",74.9 ± 19
same,relative cell number,[13],67.1 ± 23
same,relative cell number,[14],58.4 ± 10
same,relative cell number,"sgRNA knockout: sgKEAP1, 10 nM",91.2 ± 6.2
same,relative cell number,[15],83.4 ± 2.7
same,relative cell number,[16],74.5 ± 9.5
same,relative cell number,[17],55.5 ± 0.97
same,relative cell number,[18],91.45 ± 0.88
same,relative cell number,[19],94.9 ± 8.7
same,relative cell number,[20],87.3 ± 4.4
same,relative cell number,[21],64 ± 6.8
same,relative cell number,[22],86.2 ± 12
same,relative cell number,[23],87.2 ± 1.5
same,relative cell number,[24],76.4 ± 1.1
same,relative cell number,[25],60.7 ± 17
same,relative cell number,"sgRNA knockout: sgXBP1, 10 nM",82.5 ± 8
same,relative cell number,"sgRNA knockout: sgXBP1, 100 nM",107 ± 9.7
same,relative cell number,[26],84 ± 37
same,relative cell number,[27],68 ± 13
CCCS(=O)(=O)Nc1ccc(F)c(C(=O)c2c[nH]c3ncc(Cl)cc23)c1F [PLX4720],relative cell number,"sgRNA knockout: sgATF3, 10 nM",96.3 ± 42
same,relative cell number,"sgRNA knockout: sgATF3, 100 nM",91.1 ± 31
same,relative cell number,[1],85.9 ± 19
same,relative cell number,[2],98.7 ± 14
same,relative cell number,"sgRNA knockout: sgATF4, 10 nM",96.8 ± 17
same,relative cell number,"sgRNA knockout: sgATF4, 100 nM",93 ± 4.8
same,relative cell number,[3],107 ± 20
same,relative cell number,[4],94.6 ± 27
same,relative cell number,"sgRNA knockout: sgATF6, 10 nM",94.2 ± 10
same,relative cell number,"sgRNA knockout: sgATF6, 100 nM",71.9 ± 14
same,relative cell number,[5],99.9 ± 2.5
same,relative cell number,[6],96 ± 41
same,relative cell number,"sgRNA knockout: sgATG7, 10 nM",98.4 ± 18
same,relative cell number,"sgRNA knockout: sgATG7, 100 nM",94.6 ± 22
same,relative cell number,[7],80.1 ± 2.6
same,relative cell number,[8],97.7 ± 25
same,relative cell number,"sgRNA knockout: sgERN1, 10 nM",95.3 ± 20
same,relative cell number,"sgRNA knockout: sgERN1, 100 nM",91 ± 10
same,relative cell number,[9],93.26 ± 0.64
same,relative cell number,[10],101 ± 32
same,relative cell number,"sgRNA knockout: sgHSF1, 10 nM",89 ± 5.1
same,relative cell number,"sgRNA knockout: sgHSF1, 100 nM",88.7 ± 7.9
same,relative cell number,[11],88 ± 18
same,relative cell number,[12],94.8 ± 9.9
same,relative cell number,"sgRNA knockout: sgHSF2, 10 nM",91.8 ± 12
same,relative cell number,"sgRNA knockout: sgHSF2, 100 nM",91.2 ± 3.6
same,relative cell number,[13],98.9 ± 14
same,relative cell number,[14],84.6 ± 0.94
same,relative cell number,"sgRNA knockout: sgKEAP1, 10 nM",92.3 ± 6.8
same,relative cell number,[15],84.4 ± 11
same,relative cell number,[16],97.9 ± 14
same,relative cell number,[17],94.9 ± 18
same,relative cell number,[18],90.3 ± 6.3
same,relative cell number,[19],104 ± 12
same,relative cell number,[20],91 ± 3.9
same,relative cell number,[21],84.5 ± 6.7
same,relative cell number,[22],111 ± 33
same,relative cell number,[23],87.8 ± 10
same,relative cell number,[24],105 ± 31
same,relative cell number,[25],97.9 ± 25
same,relative cell number,"sgRNA knockout: sgXBP1, 10 nM",107 ± 6.3
same,relative cell number,"sgRNA knockout: sgXBP1, 100 nM",102 ± 28
same,relative cell number,[26],79.9 ± 8.8
same,relative cell number,[27],74.8 ± 4.7

# A second format for part of the listing above.
structure (smiles)	measurement	setting	value
Cc1cn(-c2cc(NC(=O)c3ccc(C)c(Nc4nccc(-c5cccnc5)n4)c3)cc(C(F)(F)F)c2)cn1 [Nilotinib]	relative cell number	sgRNA knockout: sgATF4, 10 nM	96.54 ± 0.58
same	relative cell number	sgRNA knockout: sgXBP1, 100 nM	96.9 ± 20
O=C(c1cc(Cc2n[nH]c(=O)c3ccccc23)ccc1F)N1CCN(C(=O)C2CC2)CC1 [Olaparib]	relative cell number	[1]	104 ± 51
same	relative cell number	sgRNA knockout: sgATF4, 100 nM	87.2 ± 2.5
same	relative cell number	[3]	77.3 ± 19

# Shown tab-delimited: part of the list above
structure (smiles)	measurement	setting	value
Cc1cn(-c2cc(NC(=O)c3ccc(C)c(Nc4nccc(-c5cccnc5)n4)c3)cc(C(F)(F)F)c2)cn1 [Nilotinib]	relative cell number	[9]	125 ± 15
CCCS(=O)(=O)Nc1ccc(F)c(C(=O)c2c[nH]c3ncc(Cl)cc23)c1F [PLX4720]	relative cell number	[19]	104 ± 12
